Laboratory results: patent US20260174721A1, “AGENT FOR RESTORING METAL HOMEOSTASIS” (Oxford Antibiotic Group GmbH, priority 2022, published 2026)
Some of these results come from one statement about several compounds together.

System: Caenorhabditis elegans
Test: C. elegans nematode assay, overall rating over the Alzheimer and Parkinson tests
Format: in vivo
Conditions: both tests
Method: The substances (1) to (41) and (101) to (108), prepared in the above synthesis examples or purchased, were tested for their potential suitability as an agent for treating Alzheimer's disease in a 96-well procedure in the initially mentioned screening assay using the nematode Caenorhabditis elegans (Pretsch et al., see above) in a standardized β-amyloid test system using the transgenic C. elegans strain CL2659. For this purpose, stage L3 worm larvae were used at a density of 10-20 worms per well. The expression of β-amyloid in the muscle cells was induced by increasing the temperature, and the associated paralysis was recorded at regular intervals until the end of the test after 48 hours.
For this purpose, the above substances were tested at concentrations of 1 mg/ml, 100 μg/ml, and 10 μg/ml in comparison with quercetin as a […] control.
The same substances as above were tested in a 96-well procedure in the initially mentioned screening assay using the nematode Caenorhabditis elegans (Pretsch et al., see above) in a standardized α-synuclein test system using the transgenic C. elegans strain NL5901 for their potential suitability as an agent for treating Parkinson's disease. […] GFP labeling allows a direct detection of expressed protein levels using a multiplate reader for 24 to 48 hours. […]

| Structure (SMILES) | concentration from which the compound was effective |
| --- | --- |
| NCCCNC(=O)CC(=O)N1CCCC2CCCCC21 (centres unmarked) [(24), N-(3-aminopropyl)-N′-decahydroquinoline malonic acid diamide] | > 10 µg/mL |
| NCCCNC(=O)CC(=O)N1CCC2CCCCC2C1 (centres unmarked) [(25), N-(3-aminopropyl)-N′-decahydroisoquinoline malonic acid diamide] | > 10 µg/mL |
